Source: the supplement of paper PMC7824004
The other results are listed elsewhere or left out. The data scatter; read single values as rough.

test system: Candida albicans SN425; test: biofilm OD600 B-score; higher = more biofilm (less inhibition); conditions: 10 µM; assay detail: High-throughput adherence inhibition optical density biofilm assay with C. albicans SN425 in RPMI-1640/MOPS pH 7.0, 384-well plates. …
Method: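 High-throughput adherence inhibition optical density biofilm assay with C. albicans SN425 in RPMI-1640/MOPS pH 7.0, 384-well plates. Compound (10 µM) was present only during the 90 min adherence step, then washed out, and the biofilm grew 24 h without compound. Biofilm was read as OD600 after removing the media. Scores are the difference from the mean in standard deviations and the plate B-score.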

Row | SMILES | biofilm OD600 B-score
1 | Cc1ccc(-c2csc(N)c2C(N)=O)cc1C | -0.587
2 | Cc1occc1C(=O)NCc1ccc(F)cc1 | 0.208
3 | CC(=O)N1CCN(C2CCN(CCc3ccccc3)CC2)CC1 | 2.17
4 | CCc1ccc(OCCNC(C)(C)C)cc1 | -1.57
5 | O=C(Nc1cccc(NC(=O)C2CCCC2)c1)C1CCCC1 | 0.627
6 | CCc1ccc(OCCN2CCOCC2)cc1 | 1.91
7 | COc1ccc(N2CCN(C(=O)C3COc4ccccc4O3)CC2)cc1 (stereo not given) | 0.92
8 | CCCN1CCC(N2CCN(c3ccc(C(C)=O)cc3)CC2)CC1 | -1.51
9 | COc1ccc(N2CCN(Cc3cccc(OC)c3OC)CC2)cc1 | -1.62
10 | C1=CC2CC1CC2CN1CCN(c2ccccc2)CC1 (stereo not given) | -0.891
11 | CCC(Sc1nccn1C)C(=O)Nc1cc(C)on1 (stereo not given) | 0.835
12 | Cc1cccc(C(=O)Nc2ccccc2CO)c1 | -0.714
13 | Cc1cccc(OCCN2CCOCC2)c1C | -1.29
14 | O=C(O)CNC(=O)NC12CC3CC(CC(C3)C1)C2 | -3.55
15 | CN1CCN(C(=O)CCCOc2ccccc2)CC1 | 0.0507
16 | O=C(O)C1CC=CCC1C(=O)Nc1nc2ccccc2s1 (stereo not given) | -0.00783
17 | COc1ccc(S(=O)(=O)N2CCCC2)cc1 | 3.88
18 | CC1CCCC(NC2CCN(Cc3ccccc3)CC2)C1 (stereo not given) | 4.75
19 | COc1ccccc1N1CCN(C(=O)Nc2cccc(F)c2)CC1 | 2.21
20 | CCC(Sc1nc(-c2ccccc2)cc(=O)[nH]1)C(=O)O (stereo not given) | -1.45

Row | SMILES | biofilm OD600 B-score
21 | COc1cc(CN2CCCCCC2)cc(OC)c1OC | 0.3
22 | OCC(O)CN(c1ccccc1)c1ccccc1 (stereo not given) | -1.35
23 | CCOC(=O)N1CCN(c2ccccc2F)CC1 | -0.536
24 | O=C(Nc1ccc(OCC(=O)N2CCOCC2)cc1)c1cccs1 | 0.672
25 | O=C(NCc1ccco1)NC1CCCCC1 | -1.33
26 | NC(CC(=O)O)c1ccc(Cl)cc1 (stereo not given) | 2.84
27 | CS(=O)(=O)NC1CCN(Cc2ccccc2)CC1 | -0.0985
28 | COc1ccc(CC(=O)Nc2c(C)cccc2C)cc1 | -1.09
29 | CCC(C(=O)NCCO)c1ccccc1 (stereo not given) | -4.1
30 | C=CCNS(=O)(=O)c1ccc(OC)cc1 | 1.86
31 | Fc1ccccc1OCCCCn1ccnc1 | 1
32 | C/C(=C\c1ccccc1)CN(C)C1CCN(C)CC1 | -1.32
33 | NC(=O)c1ccccc1NC(=O)c1ccc2c(c1)OCO2 | 0.536
34 | C=C(C)CN(CC)Cc1cccc(O)c1 | 3.17
35 | NS(=O)(=O)c1ccc(NC(=O)c2ccccc2Cl)cc1 | 9.75
36 | c1ccc(-c2csc(NCc3ccco3)n2)nc1 | -2.28
37 | CCSc1ncnc2c(C#N)c3n(c12)CCCCC3 | -1.85
38 | COc1ccc(S(=O)(=O)Nc2cccc(SC)c2)cc1OC | -0.741
39 | CC(C)NC1CS(=O)(=O)CC1O (stereo not given) | -0.583
40 | CN1CCC(N(C)Cc2c(F)cccc2Cl)CC1 | -4.09

Another view of part of the listing above:

| Row | SMILES | biofilm OD600 B-score |
| --- | --- | --- |
| 35 | NS(=O)(=O)c1ccc(NC(=O)c2ccccc2Cl)cc1 | 9.75 |
| 36 | c1ccc(-c2csc(NCc3ccco3)n2)nc1 | -2.28 |
| 37 | CCSc1ncnc2c(C#N)c3n(c12)CCCCC3 | -1.85 |
